Measurements taken from PubChem BioAssay AID540276 (National Center for Advancing Translational Sciences (NCATS), 2011).
Screen size: about 300,000 compounds; about 5,400 (1.8%) were called active. The shares of active, inactive and inconclusive entries below differ from those in the screen. Calls follow the shape of the full dose curve; tested in HEK293 cells. A potency beside an inconclusive call is a rough fit, not a confirmed value.

test: qHTS for inhibitors of binding or entry into cells for Marburg Virus; conditions: Marburg virus pseudotyped entry inhibition, cell reporter; series mostly up to 37.8 µM
Potency is read from the fitted curve at half-maximal effect.

Question: With `CN(C)c1ccc(/C=N/NC(=O)CCc2c[nH]c3ccccc23)cc1` as the compound, how does the Potency read?
Answer: inconclusive: 15.8 µM [inhibitor, single point]

Question: For `O=C(COc1ccc(Cl)cc1Cl)NNC(=S)Nc1ccc(F)cc1`, which Potency is on record?
Answer: inactive

Question: Which Potency does the source give for `CN(C)S(=O)(=O)c1ccc(Cl)c(NC(=O)CSc2nnnn2-c2ccc(O)cc2)c1` here?
Answer: inactive

Question: With `O=C(NCc1ccccc1)c1cccc(NC(=O)C2CC2)c1` as the compound, how does the Potency read?
Answer: inconclusive: 0.199 µM [activator, full curve, poor fit]

Question: With `CC1=C(c2ccc(C)c(C)c2)S(=O)(=O)N(Cc2ccc(C(=O)NCc3cccc(C)c3)cc2)C1=O` as the compound, how does the Potency read?
Answer: inconclusive: 6.31 µM [inhibitor, single point]

Question: With `COc1ccc(Cl)cc1S(=O)(=O)Nc1noc2ccccc12` as the compound, how does the Potency read?
Answer: inactive

Question: Which Potency does the source give for `Cc1ccc(Oc2c(C(F)(F)F)oc3c(CN4CCCCC4C)c(O)ccc3c2=O)cc1` (stereo not given) here?
Answer: inactive

Question: Which Potency does the source give for `CC(=O)Nc1ccc(OC(=O)c2ccc(Br)c([N+](=O)[O-])c2)cc1` here?
Answer: inconclusive: 35.5 µM [inhibitor, single point]

Question: Which Potency does the source give for `CC(C)OCCCNC(=O)c1ccc2c(c1)N(Cc1c(F)cccc1Cl)C(=O)c1ccccc1S2` here?
Answer: inconclusive: 3.55 µM [inhibitor, partial curve, poor fit]

Question: Which Potency does the source give for `CCCCOc1ccc(CSc2nc(C)[nH]c2[N+](=O)[O-])cc1[N+](=O)[O-]` here?
Answer: inconclusive: 10 µM [inhibitor, partial curve, poor fit]

Question: For `CCN(CC)CCN(C(=O)c1ccc(S(=O)(=O)N(C)C2CCCCC2)cc1)c1nc2ccc(OC)cc2s1`, which Potency is on record?
Answer: inconclusive: 28.2 µM [inhibitor, single point]

Question: For `CCCOC(=O)CSc1nc(N)c(C#N)c(-c2ccco2)c1C#N`, which Potency is on record?
Answer: inconclusive: 6.31 µM [activator, single point]

Question: With `O=C1N(Cc2cccc(Cl)c2)C[C@@H]2C[C@@H](c3c[nH]c4ccccc34)N3CCC[C@@]123` as the compound, how does the Potency read?
Answer: inconclusive: 35.5 µM [inhibitor, single point]

Question: Which Potency does the source give for `CC(C)(C)SCCNC(=O)CN1C(=O)c2ccccc2S1(=O)=O` here?
Answer: inactive

Question: For `S=C(NCCc1ccc(Cl)cc1)Nc1ccc(Cl)cc1Cl`, which Potency is on record?
Answer: inconclusive: 35.5 µM [inhibitor, single point]

Question: For `Cc1ccc2cc(C=C(C#N)C#N)c(N3CCCCC3)nc2c1`, which Potency is on record?
Answer: inactive

Question: Which Potency does the source give for `O=C(Nc1c(Cl)cccc1Cl)c1cc(-c2ccc3c(c2)OCO3)on1` here?
Answer: inconclusive: 3.16 µM [activator, single point]

Question: With `CCOC(=O)Cn1c(=O)oc2cc(S(=O)(=O)N3CCN(c4cccc(C)c4C)CC3)ccc21` as the compound, how does the Potency read?
Answer: inactive

Question: Which Potency does the source give for `Clc1ccc(CNCCc2ccc3c(c2)OCO3)cc1` here?
Answer: inconclusive: 35.5 µM [inhibitor, single point]

Question: With `Cc1ccc(OC(C)C(=O)Nc2nonc2-c2ccc(Br)cc2)cc1C` (stereo not given) as the compound, how does the Potency read?
Answer: inactive

Question: With `C=CCN(C(=O)CCC(=O)Nc1cc(C)on1)C(C(=O)NC(C)(C)C)c1cccc(OC)c1OC` (stereo not given) as the compound, how does the Potency read?
Answer: inconclusive: 3.66 µM [inhibitor, single point]

Question: With `Cc1cc(C)c(S(=O)(=O)N2CCN(C(=O)c3ccc4c(c3)OCO4)CC2)c(C)c1` as the compound, how does the Potency read?
Answer: inactive

Question: Which Potency does the source give for `COc1ccc(N(C(=O)C2CCCCC2)S(=O)(=O)c2cccc3cccnc23)cc1` here?
Answer: inconclusive: 12.6 µM [inhibitor, partial curve, poor fit]

Question: Which Potency does the source give for `CS(=O)(=O)N1CCc2nc(-c3ccccc3)sc2C1` here?
Answer: inconclusive: 35.5 µM [inhibitor, single point]

Question: For `O=C(Nc1ccccc1)c1nnsc1S(=O)(=O)c1ccc(Cl)cc1`, which Potency is on record?
Answer: inconclusive: 35.5 µM [inhibitor, single point]

Question: For `Cc1ccc(S(=O)(=O)N2CCN(C(=O)c3cc4c(C)nn(-c5ccccc5C)c4s3)CC2)cc1`, which Potency is on record?
Answer: active: 17.8 µM

Question: For `COC(=O)Nc1ccc(C)cc1NC(=O)OC`, which Potency is on record?
Answer: inactive

Question: For `N#Cc1cc2cc3c(cc2nc1SCC(=O)N1CCOCC1)OCO3`, which Potency is on record?
Answer: inactive

Question: Which Potency does the source give for `C[C@@H](NC(=O)[C@@H]1Cc2ccccc2CN1C(=O)OC(C)(C)C)C(=O)NC1CCCCC1` here?
Answer: inactive

Question: Which Potency does the source give for `CCOC(=O)c1ccc(N=NN(C)C)cc1` here?
Answer: inconclusive: 0.562 µM [activator, full curve, poor fit]

Question: For `COc1ccc(-n2nc(C(=O)NCC(=O)N3CCOCC3)c3ccccc3c2=O)cc1Cl`, which Potency is on record?
Answer: inactive

Question: With `COc1cc(NS(=O)(=O)c2ccc(NC(=S)NC(=O)C3CCCC3)cc2)nc(OC)n1` as the compound, how does the Potency read?
Answer: inactive

Question: Which Potency does the source give for `COc1ccc(OCc2cccc(C(=O)NN)c2)cc1` here?
Answer: active: 4.11 µM

Question: With `O=C(Nc1cc2c3c(c1)CC(=O)N3CCC2)c1ccccc1F` as the compound, how does the Potency read?
Answer: inconclusive: 5.62 µM [activator, single point]

Question: With `CCc1ccc(NC(=O)C(=O)NNC(=O)c2cccs2)cc1` as the compound, how does the Potency read?
Answer: inactive

Question: Which Potency does the source give for `O=C(CCc1cccc(Cl)c1)NC1CCCN(Cc2ccccc2F)C1` (stereo not given) here?
Answer: inconclusive: 25.1 µM [inhibitor, single point]

Question: For `O=C(CSc1nnnn1Cc1ccccc1)c1ccccc1`, which Potency is on record?
Answer: inconclusive: 3.55 µM [activator, partial curve]

Question: With `CCCNC(=O)OC[C@H]1O[C@H](CCON=C2C[C@@H](O)[C@@H](O)[C@@H]3[C@H]4C(=O)N(CC)C(=O)[C@@H]4CC[C@H]23)C=C[C@H]1Oc1ccc(OC)cc1` as the compound, how does the Potency read?
Answer: inactive

Question: Which Potency does the source give for `CCOc1c(Cl)cc(Cl)cc1CNCCNCCO` here?
Answer: inconclusive: 0.651 µM [activator, single point]

Question: Which Potency does the source give for `O=C(O)CC/C(=N/NC(=O)c1cccs1)c1ccccc1` here?
Answer: inconclusive: 5.17 µM [activator, single point]

Question: For `O=C(COc1ccccc1)N/N=C/c1sc(=O)n(Cc2cccc(C(=O)O)c2)c1Cl`, which Potency is on record?
Answer: inactive

Question: For `CC(C)c1ccc(NC(=O)C2CCCN(S(=O)(=O)c3cccc4cccnc34)C2)cc1` (stereo not given), which Potency is on record?
Answer: inconclusive: 35.5 µM [inhibitor, single point]

Question: With `Cc1nnc(N/N=C/c2ccco2)n1N` as the compound, how does the Potency read?
Answer: inconclusive: 35.5 µM [inhibitor, partial curve, poor fit]

Question: For `Cn1c(CNC(=O)CNS(=O)(=O)c2ccccc2)cc(=O)n(C)c1=O`, which Potency is on record?
Answer: inconclusive: 1 µM [activator, full curve, poor fit]

Question: With `CCCCn1c(N)c(N(CC)C(=O)c2ccc(C#N)cc2)c(=O)[nH]c1=O` as the compound, how does the Potency read?
Answer: inconclusive: 14.1 µM [activator, single point]
